Measurements published in patent publication US20130096072A1 (Genentech, published 2013).
These are yes or no findings as the source states them, for the method shown. Some binding calls cover weakened binding; strength is not graded here.

Sequences of proteins named here, by UniProt entry; tags and fusion partners are left off. A change or cut given only in a name is not applied to a line headed by its entry.
UniProt P14210: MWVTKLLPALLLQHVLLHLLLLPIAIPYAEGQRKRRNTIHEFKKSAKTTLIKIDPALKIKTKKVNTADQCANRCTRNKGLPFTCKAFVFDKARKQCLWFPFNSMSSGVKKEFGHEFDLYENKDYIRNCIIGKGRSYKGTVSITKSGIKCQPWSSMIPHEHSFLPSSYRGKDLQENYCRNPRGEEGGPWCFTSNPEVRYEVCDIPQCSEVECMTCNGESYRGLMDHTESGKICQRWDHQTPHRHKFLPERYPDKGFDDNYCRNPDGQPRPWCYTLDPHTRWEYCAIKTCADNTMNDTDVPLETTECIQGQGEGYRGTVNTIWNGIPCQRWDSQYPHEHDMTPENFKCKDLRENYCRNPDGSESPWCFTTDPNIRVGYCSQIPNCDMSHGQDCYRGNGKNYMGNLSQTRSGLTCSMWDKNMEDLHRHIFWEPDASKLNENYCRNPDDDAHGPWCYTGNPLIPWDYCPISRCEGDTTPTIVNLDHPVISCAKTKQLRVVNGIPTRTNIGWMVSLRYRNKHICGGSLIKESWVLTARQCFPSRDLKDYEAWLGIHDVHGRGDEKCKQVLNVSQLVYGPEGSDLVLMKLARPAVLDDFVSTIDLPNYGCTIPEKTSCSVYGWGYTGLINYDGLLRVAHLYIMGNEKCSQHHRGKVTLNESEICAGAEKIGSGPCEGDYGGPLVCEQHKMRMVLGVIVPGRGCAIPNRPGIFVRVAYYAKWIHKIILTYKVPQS

Tests used:
[1] = molecular target: scHGF β-chain (zymogen-like HGF β, residues Asn479 to Ser728, R494E, C-terminal His-tag) (human) (UniProt P14210); assay: activity-based phage sorting: library with 0.5 µM scHGF β in solution, complex captured on a Met Sema-PSI coated plate; the clones as a group are plotted in FIG. 9B
[2] = molecular target: scHGF β-chain (zymogen-like HGF β, residues Asn479 to Ser728, R494E, C-terminal His-tag) (human) (UniProt P14210); assay: BLI scHGF β activation/Met binding assay
[3] = molecular target: scHGF β-chain (zymogen-like HGF β, residues Asn479 to Ser728, R494E, C-terminal His-tag) (human) (UniProt P14210); assay: biolayer interferometry: biotinylated Met Sema/PSI on streptavidin tips, 0.5 µM scHGF β in solution, peptide titrated; steady-state surface response of scHGF β binding to Met
HGF β V495G (human) [4] = molecular target: HGF β V495G (human) (UniProt P14210); assay: X-ray crystal structure of the ternary complex
HGF β V495G (human) [5] = molecular target: HGF β V495G (human) (UniProt P14210); assay: X-ray crystal structure (FIG. 8)
HGF β V495G (human) [6] = molecular target: HGF β V495G (human) (UniProt P14210); assay: X-ray crystal structure (FIG. 13)

Binder	binding [1]	further results
IIGGDPVWDITYTYA [ZAP.13]	binds	–
IIGGDPYWYPHPGTV [ZAP.04]	binds	–
IVGGDPYWVPHPGDA [ZAP.01]	binds	–
IIGGDPWWTPHPSFV [ZAP.30]	binds	–
IVGGDPWWVDHMYLT [ZAP.86]	binds	–
IVGGCPYWMDREECL [ZAP.11]	binds	–
IVDGYPWWMDV (D-aspartic acid at position 3; C-terminal amide) [IVdG.14 peptide]	–	binding [2]: binds; binding [3]: binds
IVGGYPWWMDV (C-terminal amide) [IVGG.14 peptide]	–	binding (HGF β V495G (human) [4]): binds; binding (HGF β V495G (human) [5]): binds
IIGGCPYWMDREECI (intramolecular disulfide bond between Cys-5 and Cys-14; C-terminal amide) [ZAP.03 (cyclic 15-mer synthetic peptide)]	–	binding (HGF β V495G (human) [4]): binds; binding (HGF β V495G (human) [6]): binds
